# Some of the results follow. These are further read-outs of the screen, such as a control signal, another cell line or another target. No call is given for them. The list favours compounds with an active or inconclusive main result. Words in brackets tell the shape of the fitted curve; partial curves, single points and poor fits give uncertain potencies.
# Test: qHTS Assay for Modulators of Lamin A Splicing
# Settings: HeLa LMNA splicing GFP/RFP minigene ratio, 48 h
# Description: NCGC Assay Overview: Hutchinson-Gilford Progeria Syndrome (HGPS) is a pediatric premature aging disease caused by a spontaneous mutation in the lamin A/C (LMNA) gene. The mutation activates a cryptic splice site in the LMNA pre-mRNA which results in production of a pre-lamin A protein that cannot be processed properly. The mutant protein accumulates in the nucleus and negatively affects numerous cellular functions. Correction of the splicing defect in HGPS patient cells using a targeted oligonucleotide (exo11) leads to reversal of the cellular disease phenotypes. To identify small molecule modulators of aberrant LMNA splicing, a homogenous assay was constructed in HeLa cells that used a GFP containing minigene to report on correction of aberrant splicing in lamin A and a RFP (DsRed2) to report on cell viability, uniformity and nonspecific effects on the assay signal. This assay was adapted to laser-scanning microplate cytometry (Acumen, TTP Labtech) where miniaturization of the assay to a 1,536-well plate format was possible. References: Bowen, W. P.; Wylie, P. G. Application of Laser-Scanning Fluorescence Microplate Cytometry in High Content Screening. Assay Drug Dev Technol 2006;4:209-221. Scaffidi P, Misteli T. Reversal of the cellular phenotype in the premature aging disease Hutchinson-Gilford progeria syndrome. Nat.
# NCGC Assay Protocol Summary: Reagents/Controls: Stable clones expressing DsRed2 and lamin A-EGFP were generated by Cell and Molecular Technologies in S3 HeLa cells. HeLa cells were prepared for the assay when they were 70-90% confluent. The cells were counted and resuspended in Opti-MEM I (no phenol red; Gibco), 2% FBS, 1% penicillin/ streptomycin (Gibco) at concentration of 120 cells/uL concentration. The suspension was passed through a Falcon basket filter with pore size 40um (Beckton Dickson). Control titrations: column […] 1536-well plate contained a sixteen point titration (1:2 dilutions) in duplicate of ancitabine (Sigma: A8598) beginning at 40 uM final concentration. Column 2 contained a sixteen point titration (1:2 dilutions) of cycloheximide beginning at 1.4 mM final concentration. Column 3 contained ancitabine at 40 uM and column 4 contained was the vehicle control (0.5% DMSO final concentration). Assay Steps: 5 uL of HeLa cells were plated in Aurora LoBase black clear bottom (cyclic-olefin polymer) 1536-well plates at a final density of 600 cells/well. Controls and library compounds were added with a 1536-well pin array using the Kalypsys pin-tool. The plates were then incubated for 48 hrs in a cell-culture incubator (37 °C; 5% CO2, 98% humidity). Following incubation the plates were read on the Acumen Explorer using the 488 nm laser. Data was collected on objects between 10 and 100 um in size. Cell objects were defined by a 15 um width x 10 um depth filter. The ratio of the total object intensity in PMT1 (500-530 nm emission; GFP) over PMT3 (575-640 nm emission; RFP) was calculated for analysis. Keywords: NIH Roadmap, MLSCN, MLI, MLSMR, qHTS, NCGC, lamin A, Progeria, RNA splicing.
# [1] = measured here: GFP splicing reporter channel
# [2] = measured here: RFP viability control channel
Compound,AC50 [1],AC50 [2]
CN(C)CCC=C1c2ccccc2CCc2ccccc21,"0.00501 µM [falling, full curve, poor fit]","1.41 µM [rising, partial curve, poor fit]"
Cc1ccnc2c1NC(=O)c1cccnc1N2C1CC1,"0.158 µM [rising, full curve, poor fit]","0.0355 µM [rising, full curve, poor fit]"
CC(C)NS(=O)(=O)c1ccc(OCC(=O)N2CCN(Cc3ccc4c(c3)OCO4)CC2)c(Cl)c1,,"17.8 µM [rising, partial curve]"
NC(=O)OCCCc1ccccc1,"0.00224 µM [falling, full curve, poor fit]","0.0794 µM [falling, full curve, poor fit]"
CC[C@H]1CN2CCc3cc(OC)c(OC)cc3[C@H]2C[C@@H]1C[C@@H]1NCCc2cc(OC)c(OC)cc21,"0.501 µM [falling, full curve]","0.794 µM [falling, full curve]"
O=c1oc2ccccc2c(O)c1C(c1ccccn1)c1c(O)c2ccccc2oc1=O,"12.6 µM [falling, partial curve]","39.8 µM [falling, partial curve, poor fit]"
CCOc1c(Cl)cc(CNC(C)C(O)c2ccccc2)cc1OC (configuration not stated),"0.00447 µM [falling, full curve, poor fit]","0.00316 µM [falling, full curve, poor fit]"
NC1CCc2cc(O)c(O)cc2C1 (configuration not stated),"5.62 µM [falling, partial curve, poor fit]",
Cc1ccc(N2C(=O)NC(=O)/C(=C/c3cnc(-c4ccccc4)nc3)C2=O)cc1C,,"2 µM [falling, partial curve, poor fit]"
Cn1c(=O)oc2cc(S(=O)(=O)N3CCOCC3)ccc21,,"0.158 µM [rising, full curve, poor fit]"
CCOP(=O)(OCC)C(c1ccccc1)N(C)C=O (configuration not stated),"0.2 µM [falling, partial curve, poor fit]","0.0251 µM [falling, full curve, poor fit]"
CC(C)OCCCNC(=O)c1c(N)n(Cc2cccs2)c2nc3ccccc3nc12,"35.5 µM [falling, single point]","35.5 µM [falling, single point]"
C[C@H]1OC[C@@H](C[N+](C)(C)C)O1,"0.00501 µM [falling, full curve, poor fit]",
C=CC1CN2CCC1CC2C(OC(=O)OCC)c1ccnc2ccc(OC)cc12 (configuration not stated),"0.447 µM [falling, full curve, poor fit]","0.398 µM [falling, single point]"
COc1cc2c(cc1O)C[C@H]1c3c(cc(O)c(OC)c3-2)CCN1C,"0.316 µM [falling, single point]","0.316 µM [falling, single point]"
O=C(NC1(C(F)(F)F)Oc2ccccc2O1)N1CCC2(CC1)OCCO2,,"15.8 µM [rising, single point]"
Cc1nn(Cc2ccccc2Cl)c(Cl)c1C(=O)OC(C(=O)NC(N)=O)C(C)C (configuration not stated),"1.78 µM [rising, partial curve]",

# A few values from above.
# CCOP(=O)(OCC)C(c1ccccc1)N(C)C=O (configuration not stated) – AC50 [2]: 0.0251 µM [falling, full curve, poor fit]
# CC(C)NS(=O)(=O)c1ccc(OCC(=O)N2CCN(Cc3ccc4c(c3)OCO4)CC2)c(Cl)c1 – AC50 [2]: 17.8 µM [rising, partial curve]

# The results go on:

Compound,AC50 [1],AC50 [2]
CCC1(CC)C(=O)NC(=O)NC1=O,"17.8 µM [falling, single point]","15.8 µM [falling, partial curve]"
COCCOC(=O)c1c(N)n(Cc2ccco2)c2nc3ccccc3nc12,,"14.1 µM [rising, single point]"
CCN1C(=O)C(=Cc2ccc(C)s2)C(=O)N(CC)C1=S,,"3.16 µM [falling, single point]"
CCCCn1c(O)c(C(C)=Nc2ccc(OCC)cc2)c(=O)[nH]c1=O,,"35.5 µM [rising, single point]"
O=C(CCCN1CCC(n2c(=O)[nH]c3ccccc32)CC1)c1ccc(F)cc1,"1.78 µM [falling, full curve, poor fit]","1.58 µM [falling, single point]"
CCOC(=O)c1c(C)n(Cc2ccccc2)c2ccc(O)cc12,"0.0447 µM [falling, full curve, poor fit]","0.0447 µM [falling, full curve, poor fit]"
O=C1CCO1,"1.26 µM [falling, single point]","35.5 µM [falling, single point]"
COc1ccc(CN2CCN(c3ccccc3)CC2)c(C)c1C,,"11.2 µM [rising, partial curve]"
C/C(CC(c1ccccc1)c1c(O)c2ccccc2oc1=O)=N\NC(N)=S (configuration not stated),,"0.178 µM [falling, full curve]"
CCc1ccccc1NC(=O)Nc1cc(C(=O)NCc2ccc(C(C)C)cc2)ccc1N1CCCC1,"35.5 µM [falling, single point]","11.2 µM [falling, partial curve, poor fit]"
COc1cc2c3cc1Oc1cc(ccc1O)C[C@@H]1c4c(cc(OC)c(O)c4Oc4cccc(c4)C[C@H]3N(C)CC2)CC[N+]1(C)C,"0.00708 µM [falling, full curve, poor fit]","0.00708 µM [falling, full curve, poor fit]"
O=C(CNC(=O)c1cccc(Cl)c1)Nc1ccc(Br)cc1C(=O)c1ccccc1,,"31.6 µM [rising, single point]"
CCC(=O)OC1(c2ccccc2)CCN(C)CC1C (configuration not stated),,"0.0251 µM [falling, full curve, poor fit]"
C[N+]1(C)C2CCC1CC(OC(=O)c1c[nH]c3ccccc13)C2 (configuration not stated),"35.5 µM [falling, single point]","25.1 µM [falling, single point]"
CCOP(=O)(OCC)C(NS(=O)(=O)c1ccccc1)C(Cl)(Cl)Cl (configuration not stated),"2.82 µM [falling, full curve]","2.51 µM [falling, full curve]"
COCCCn1c(-c2ccc(OC)cc2)cc(C(=O)NC2CCCCCCC2)c1C,"35.5 µM [rising, single point]","35.5 µM [rising, single point]"

# — PubChem BioAssay AID1487 (National Center for Advancing Translational Sciences (NCATS), 2009)
